Source: article PMC5241209, “Identification and functional analysis of c.422_423InsT, a novel mutation of the HNF1A gene in a patient with diabetes”
The exact form of at least one protein or probe is not confirmed. Weaker means in comparison with the reference protein, sequence or condition of that experiment.

Amino acid sequences for entries named in this document (tags omitted). A change or cut given only in a name is not applied to a line headed by its entry.
UniProt P20823: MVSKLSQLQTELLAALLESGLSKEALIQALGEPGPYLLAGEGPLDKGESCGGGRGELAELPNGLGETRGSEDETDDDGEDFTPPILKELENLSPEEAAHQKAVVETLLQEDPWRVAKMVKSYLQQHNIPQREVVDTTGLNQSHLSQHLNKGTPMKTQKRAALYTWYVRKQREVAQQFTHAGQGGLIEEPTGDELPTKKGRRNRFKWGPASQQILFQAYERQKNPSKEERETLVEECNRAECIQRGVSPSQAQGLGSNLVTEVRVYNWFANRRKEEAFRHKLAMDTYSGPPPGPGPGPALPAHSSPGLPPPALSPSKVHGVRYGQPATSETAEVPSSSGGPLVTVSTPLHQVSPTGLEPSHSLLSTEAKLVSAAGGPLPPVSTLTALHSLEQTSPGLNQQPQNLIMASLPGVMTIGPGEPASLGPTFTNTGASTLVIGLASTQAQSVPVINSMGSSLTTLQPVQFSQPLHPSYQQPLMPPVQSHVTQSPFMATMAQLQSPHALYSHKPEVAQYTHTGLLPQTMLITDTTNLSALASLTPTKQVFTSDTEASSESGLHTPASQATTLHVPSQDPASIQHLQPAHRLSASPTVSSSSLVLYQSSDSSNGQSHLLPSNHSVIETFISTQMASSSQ

Molecular target: HNF1A Q141Hfs*47 (c.422_423InsT) (UniProt P20823)
Experiment: EMSA
Conditions: two barely visible complexes, diminished by 300x unlabeled probe; 12 mM Hepes pH 7.9, 60 mM KCl, 10% glycerol, 1 mM EDTA, 1 mM MgCl2, 1 mM DTT plus DNA mix (1 mM spermidine, 1 mM MgCl2), 1 ug poly(dG/dC)·poly(dG-dC), 4 C; protein translated in vitro; residues 1-140; label: 32P 5' end (T4 PNK), unlabeled as competitor

“CTCAGTAAAGATTAACCAT (double strand) [GLUT2 promoter HNF1A site]”: binds more weakly.
